Experimental data published in US3950513A, “Process of stabilizing therapeutically useful plasmin solutions” (Novo Terapeutisk Laboratorium A/S, priority 1969, dated 1976).

Sequences of proteins named here, by UniProt entry; tags and fusion partners are left off. Residues count along the entry.
UniProt P06867, 97-579 limits assumed: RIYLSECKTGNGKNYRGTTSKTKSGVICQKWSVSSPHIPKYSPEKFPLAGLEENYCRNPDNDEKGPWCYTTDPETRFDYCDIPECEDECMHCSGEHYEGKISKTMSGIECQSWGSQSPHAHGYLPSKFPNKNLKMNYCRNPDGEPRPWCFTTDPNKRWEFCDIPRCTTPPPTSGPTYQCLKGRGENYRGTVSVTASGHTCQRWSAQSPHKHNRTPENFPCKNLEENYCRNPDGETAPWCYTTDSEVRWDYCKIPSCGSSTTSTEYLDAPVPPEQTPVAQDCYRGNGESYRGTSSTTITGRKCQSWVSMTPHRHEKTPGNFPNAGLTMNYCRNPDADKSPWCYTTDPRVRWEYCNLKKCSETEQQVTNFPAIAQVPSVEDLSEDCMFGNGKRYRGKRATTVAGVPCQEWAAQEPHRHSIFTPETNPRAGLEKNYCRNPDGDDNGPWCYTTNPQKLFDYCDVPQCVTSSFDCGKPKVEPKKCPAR
UniProt P06867, 580-809 limits assumed: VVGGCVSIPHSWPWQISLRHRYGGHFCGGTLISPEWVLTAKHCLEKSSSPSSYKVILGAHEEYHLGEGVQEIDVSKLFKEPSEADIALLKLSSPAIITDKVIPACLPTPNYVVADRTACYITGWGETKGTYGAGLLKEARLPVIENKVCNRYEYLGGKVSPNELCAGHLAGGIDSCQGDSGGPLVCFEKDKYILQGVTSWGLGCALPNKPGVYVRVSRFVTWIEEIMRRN

Target: T1, plasmin originating from swine blood (Sus scrofa, UniProt P06867)
T1 construct: from tissue; host or cells: swine blood
Experiment: Stabilizing effect of amino acids on plasmin solution, residual plasmin activity (casein) on storage
Format: biochemical
Conditions: 35.5°C, employed concentration 0.25 millimole per plasmin unit
Method: Usually the activity of plasmin solutions is expressed in the number of plasmin units per milliliter. However, no definition of a plasmin unit has until now been internationally adopted. Here and in the following one plasmin unit means the amount of plasmin causing in 20 minutes the formation of decomposition products being soluble in perchloric acid and having an extinction of 1 unit at 275 mμ under the following experimental conditions:
1 […] THE PLASMIN SOLUTION THE ACTIVITY OF WHICH IS TO BE […] THE PH of which is 7.5 is added to two test tubes each containing in 0.4 molar phosphate buffer (pH 7.50) 1 […] a 3 per cent's solution of Hammarsten Casein said solution having been preheated to 35.5°C. […] By the addition of the perchloric acid a precipitation takes place, and the two test tubes now stand for 20 minutes whereafter filtration two times through filtering paper (J. H. Munktells unrivalled Genuine Swedish Filtering Paper No. 0.9 cm) is carried out. The extinction of the two solutions is thereafter measured at 275 mμ in a Beckman D U Spectrophotometer (1 cm quartz cuvette), the value of the sample having stood for 2 minutes being used as blind value.
The stabilizing effect of a long series of amino acids has been examined in connection with plasmin originating from swine blood and dissolved in phosphate buffer (pH 7.5). […] If not, a saturated amino acid solution is employed.

NCCC[C@H](N)C(=O)O [L-ornithine]
stabilizing effect (in words): excellent stabilizing effect
